Test system: ovary-removed rats
Settings: 1.0 mg/kg (T1)
Protocol: In order to investigate the effects of the inventive mutual salts on BMD, bone stiffness, serum cholesterol level and calcium density, in vivo tests were carried out as follows.
Also, 1.5% carboxymethylcellulose alone was administrated in a same manner to each of ovary-removed rats (group OVX) and normal rats (control, group Sham). After 8 weeks, a femur sample was obtained from each test groups to measure BMD, maximum load, stiffness, trabecular volume of epiphysis, bone volume of metaphysis, blood cholesterol level and blood calcium density.

NCCCC(O)(P(=O)(O)O)P(=O)(O)O [Alendronate, sodium alendronate trihydrate]
Blood calcium density Conc. (oophorectomy rats, oral once a day 8 weeks): 6.15 ± 0.39 mg/dL
BMD Relativ. Density (relative to OVX control = 1.00): 1.19
Blood calcium density Relativ. Conc. (relative to OVX control = 1.00): 0.65

Source: US20070082871A1, “Antiresorptive mutual salt of raloxifene and bisphosphonic acid” (HANMI PHARM. CO., LTD., priority 2003, published 2007)
